Values of other authors in patent US20060105068A1, “Dietary supplement formulations containing Hoodia gordonii” (priority 2003, published 2006).
At least one structure is not confirmed: it was looked up by name or label, or the drawing left a doubt.

Conditions: 25 mg two times a day for twelve weeks; placebo group experienced weight gain

In the case of C=C[C@@]1(C)CC(=O)[C@]2(O)[C@@]3(C)[C@@H](O)CCC(C)(C)[C@@H]3[C@H](O)[C@H](OC(C)=O)[C@@]2(C)O1 [forskolin, Forskolin], the bodyweight change is listed as “decrease in bodyweight”.
